From US20200199244A1 come the findings set out here.

Assay [1] concerns the target chimpanzee CD40 on CD20+ B cells in blood (chimpanzee). The assay can be described thus: flow cytometry on whole blood, anti-PEG detection, gate on CD20+ B cells. Background: In flow cytometry, cells or beads pass a laser one at a time.
For assay [2] the target is unchanged. The assay can be described thus: flow cytometry on whole blood, PE-streptavidin detection, gate on CD20+ B cells.

Results are given in words; binding and its absence hold for the method and conditions named.

B1: BMS3h-56-5C-40L (protein)
VH: EVQLLESGGGLVQPGGSLRLSCAASGFTFRDYEMWWVRQAPGKGLERVSAINPQGTRTYYADSVMGRFTISRDNSKNTLYLQMNSLRAEDTAVYYCAKLPFTFDDWGQGTLVTVSS
modifications: PEGylated; attachment residue not stated
With B1, the binding result in assay [1] was “no binding”.

B2: BMS3h38-2-biotin (protein)
VH: EVQLLASGGGLVQPGGSLRLSCAASGFTFEEEEMIWVRQAPGKGLEWVSAISGSGGSTYYADSVKGRFTISRDNSKNTLYLQMNSLRAEDTAVYYCGKEPFRYDYWGQGTLVTVSS
modifications: biotin-conjugated; site not stated
Consider B2, for which the binding result in assay [2] is reported as “no binding”.

B3: BMS3h38-2C-P40Br (protein)
VH: EVQLLASGGGLVQPGGSLRLSCAASGFTFEEEEMIWVRQAPGKGLEWVSAISGSGGSTYYADSVKGRFTISRDNSKNTLYLQMNSLRAEDTAVYYCGKEPFRYDYWGQGTLVTVSS
modifications: PEGylated; attachment residue not stated
As to B3, the binding entry in assay [1] is “no binding”.
